{
  "source": "the supplement of paper PMC8728848",
  "assay_in_all_cases": "glycan array binding signal (z-score within array); higher = stronger binding",
  "conditions_in_all_cases": "glycan notation: IUPAC condensed, linker removed",
  "key": {"[1]": {"target": "Neu5Ac(a2-3)Gal(b1-4)GlcNAc(b1-6)[Gal(b1-3)]GalNAc", "procedure,_shortened": "(§1)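 The Consortium for Functional Glycomics database supplied 3228 glycan arrays, of which those lacking an available protein sequence were dropped. The binding signal, a within-array Z-score, was averaged across arrays of the same protein sequence and across linkers. Negative scores can be read as non-binding.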"}, "[2]": {"target": "Neu5Ac(a2-3)Gal(b1-4)GlcNAc(b1-6)[Neu5Ac(a2-3)Gal(b1-3)]GalNAc", "procedure,_shortened": "as §1"}, "[3]": {"target": "Neu5Ac(a2-3)Gal(b1-4)GlcNAc6S", "procedure,_shortened": "as §1"}, "[4]": {"target": "Neu5Ac(a2-3)Gal(b1-4)[Fuc(a1-3)]GlcNAc", "procedure,_shortened": "as §1"}, "[5]": {"target": "Neu5Ac(a2-3)Gal(b1-4)[Fuc(a1-3)]GlcNAc(b1-2)Man", "procedure,_shortened": "as §1"}, "[6]": {"target": "Neu5Ac(a2-3)Gal(b1-4)[Fuc(a1-3)]GlcNAc(b1-3)Gal", "procedure,_shortened": "as §1"}, "[7]": {"target": "Neu5Ac(a2-3)Gal(b1-4)[Fuc(a1-3)]GlcNAc(b1-3)Gal(b1-4)GlcNAc", "procedure,_shortened": "as §1"}, "[8]": {"target": "Neu5Ac(a2-3)Gal(b1-4)[Fuc(a1-3)]GlcNAc(b1-3)Gal(b1-4)[Fuc(a1-3)]GlcNAc(b1-3)Gal(b1-4)[Fuc(a1-3)]GlcNAc", "procedure,_shortened": "as §1"}, "[9]": {"target": "Neu5Ac(a2-3)Gal(b1-4)[Fuc(a1-3)]GlcNAc(b1-3)GalNAc", "procedure,_shortened": "as §1"}, "[10]": {"target": "Neu5Ac(a2-3)Gal(b1-4)[Fuc(a1-3)]GlcNAc(b1-6)[Gal(b1-3)]GalNAc", "procedure,_shortened": "as §1"}, "[11]": {"target": "Neu5Ac(a2-3)Gal(b1-4)[Fuc(a1-3)]GlcNAc(b1-6)[Neu5Ac(a2-3)Gal(b1-3)]GalNAc", "procedure,_shortened": "as §1"}, "[12]": {"target": "Neu5Ac(a2-3)Gal(b1-4)[Fuc(a1-3)]GlcNAc6S", "procedure,_shortened": "as §1"}, "[13]": {"target": "Neu5Ac(a2-3)Gal6S(b1-4)GlcNAc", "procedure,_shortened": "as §1"}, "[14]": {"target": "Neu5Ac(a2-3)Gal6S(b1-4)[Fuc(a1-3)]GlcNAc", "procedure,_shortened": "as §1"}, "[15]": {"target": "Neu5Ac(a2-3)GalNAc", "procedure,_shortened": "as §1"}, "[16]": {"target": "Neu5Ac(a2-3)GalNAc(b1-4)GlcNAc", "procedure,_shortened": "as §1"}, "[17]": {"target": "Neu5Ac(a2-3)[GalNAc(b1-4)]Gal(b1-4)Glc", "procedure,_shortened": "as §1"}, "[18]": {"target": "Neu5Ac(a2-3)[GalNAc(b1-4)]Gal(b1-4)GlcNAc", "procedure,_shortened": "as §1"}, "[19]": {"target": "Neu5Ac(a2-3)[GalNAc(b1-4)]Gal(b1-4)GlcNAc(b1-3)GalNAc", "procedure,_shortened": "as §1"}, "[20]": {"target": "Neu5Ac(a2-3)[Neu5Ac(a2-6)]GalNAc", "procedure,_shortened": "as §1"}, "[21]": {"target": "Neu5Ac(a2-6)Gal", "procedure,_shortened": "as §1"}, "[22]": {"target": "Neu5Ac(a2-6)Gal(b1-3)GlcNAc(b1-3)[Gal(b1-4)GlcNAc(b1-6)]Gal(b1-4)Glc", "procedure,_shortened": "as §1"}, "[23]": {"target": "Neu5Ac(a2-6)Gal(b1-4)Glc", "procedure,_shortened": "as §1"}, "[24]": {"target": "Neu5Ac(a2-6)Gal(b1-4)GlcNAc", "procedure,_shortened": "as §1"}, "[25]": {"target": "Neu5Ac(a2-6)Gal(b1-4)GlcNAc(b1-2)Man", "procedure,_shortened": "as §1"}, "[26]": {"target": "Neu5Ac(a2-6)Gal(b1-4)GlcNAc(b1-2)Man(a1-3)Man(b1-4)GlcNAc(b1-4)GlcNAc", "procedure,_shortened": "as §1"}, "[27]": {"target": "Neu5Ac(a2-6)Gal(b1-4)GlcNAc(b1-2)Man(a1-3)[Gal(b1-4)GlcNAc(b1-2)Man(a1-6)]Man(b1-4)GlcNAc(b1-4)GlcNAc", "procedure,_shortened": "as §1"}, "[28]": {"target": "Neu5Ac(a2-6)Gal(b1-4)GlcNAc(b1-2)Man(a1-3)[GlcNAc(b1-2)Man(a1-6)]Man(b1-4)GlcNAc(b1-4)GlcNAc", "procedure,_shortened": "as §1"}, "[29]": {"target": "Neu5Ac(a2-6)Gal(b1-4)GlcNAc(b1-2)Man(a1-3)[GlcNAc(b1-4)][Neu5Ac(a2-6)Gal(b1-4)GlcNAc(b1-2)Man(a1-6)]Man(b1-4)GlcNAc(b1-4)GlcNAc", "procedure,_shortened": "as §1"}, "[30]": {"target": "Neu5Ac(a2-6)Gal(b1-4)GlcNAc(b1-2)Man(a1-3)[Man(a1-6)]Man(b1-4)GlcNAc(b1-4)GlcNAc", "procedure,_shortened": "as §1"}},
  "note": "The other results are listed elsewhere or left out.",
  "data": [
    {"binder": "Blon2355mut (Bifidobacterium longum) (protein) MVQEPTLEWHVIPEPTNVEPLVGTCSLPLSGTVVEQRGADDAEAVFARQLVDDIKRVCGGRWQVASGEVQREVTLRTSPSLDDWSYVLEVSPDGVVITGSGFEGVRDGVQTLRQIIRQIGLTIPCMVIRDRPAFSTRGYYLDVTRGRVPSMAWLKSWVDRLCFYKYNQFQLYIEHTFQFNGLSEVWRGADPLTSSDILELDSYCAARGIELVPSVSTFGHHYTALRTRQLRDLGEFPEDADRPFSLIERMTHHTLNITDERSYEFSTSLIDELMPLFRSRKFNICANETFDLGKGRSKQESAKRGVGAMYADFVERLCRHVDDRGHDVMVWADVALEHPEIIDTLPKNITWLNWQYEPNVDDGTTAALADAGATQMVCPAVWCWNALIPRIDDAWNNITRMARHGRAHDVSGMLVTDWGDFGHVNDPRMSVPGMIFGAQQSWNPDAELSEVDMLSRISTIEYGDHTGSVVGALRGASAKGGFSWSDLVTYLELDDGRGGCNTEIVRVMGCLEAYRNDLPQSGQARLADARVSMLRTLRDSILAGRELNGKLDDAAKDITQLLRVAGDPSSAAVWSLAIDGQRLLNRVGLALLAAHGVVRQDEAGIDAAKLADELECWTEQYSRLWHEVSRQSELARIQHVVWRAADVLRSI", "values": [
      {"measurement": "glycan array binding signal (z-score)", "setting": "[1]", "value": -0.276},
      {"measurement": "glycan array binding signal (z-score)", "setting": "[2]", "value": -0.218},
      {"measurement": "glycan array binding signal (z-score)", "setting": "[3]", "value": -0.793},
      {"measurement": "glycan array binding signal (z-score)", "setting": "[4]", "value": -0.661},
      {"measurement": "glycan array binding signal (z-score)", "setting": "[5]", "value": 1.4},
      {"measurement": "glycan array binding signal (z-score)", "setting": "[6]", "value": -0.628},
      {"measurement": "glycan array binding signal (z-score)", "setting": "[7]", "value": 1.5},
      {"measurement": "glycan array binding signal (z-score)", "setting": "[8]", "value": -0.579},
      {"measurement": "glycan array binding signal (z-score)", "setting": "[9]", "value": 0.838},
      {"measurement": "glycan array binding signal (z-score)", "setting": "[10]", "value": -0.085},
      {"measurement": "glycan array binding signal (z-score)", "setting": "[11]", "value": 1.6},
      {"measurement": "glycan array binding signal (z-score)", "setting": "[12]", "value": 0.298},
      {"measurement": "glycan array binding signal (z-score)", "setting": "[13]", "value": 0.155},
      {"measurement": "glycan array binding signal (z-score)", "setting": "[14]", "value": -1},
      {"measurement": "glycan array binding signal (z-score)", "setting": "[15]", "value": -1.02},
      {"measurement": "glycan array binding signal (z-score)", "setting": "[16]", "value": -0.019},
      {"measurement": "glycan array binding signal (z-score)", "setting": "[17]", "value": -0.231},
      {"measurement": "glycan array binding signal (z-score)", "setting": "[18]", "value": -0.608},
      {"measurement": "glycan array binding signal (z-score)", "setting": "[19]", "value": 0.04},
      {"measurement": "glycan array binding signal (z-score)", "setting": "[20]", "value": 0.11},
      {"measurement": "glycan array binding signal (z-score)", "setting": "[21]", "value": -0.235},
      {"measurement": "glycan array binding signal (z-score)", "setting": "[22]", "value": 0.036},
      {"measurement": "glycan array binding signal (z-score)", "setting": "[23]", "value": -0.489},
      {"measurement": "glycan array binding signal (z-score)", "setting": "[24]", "value": -0.564},
      {"measurement": "glycan array binding signal (z-score)", "setting": "[25]", "value": -0.331},
      {"measurement": "glycan array binding signal (z-score)", "setting": "[26]", "value": -0.123},
      {"measurement": "glycan array binding signal (z-score)", "setting": "[27]", "value": -0.73},
      {"measurement": "glycan array binding signal (z-score)", "setting": "[28]", "value": -1.3},
      {"measurement": "glycan array binding signal (z-score)", "setting": "[29]", "value": -0.322},
      {"measurement": "glycan array binding signal (z-score)", "setting": "[30]", "value": -0.242}
    ]}
  ]
}
